At least one compound was matched to its structure with a doubt left.
Test system: Nav1.3 and Nav1.7 mRNA expression in IMR-32 cells
Assay: Quantitative PCR of Nav mRNA in IMR-32 cells
Assay type: cell-based, human
Conditions: 1 μM

CC1=C(/C=C/C(C)=C\C=C\C(C)=C\C(=O)O)C(C)(C)CCC1 [RA, 9-cis RA]
effect on Nav1.3 mRNA expression: up-regulation | effect on Nav1.7 mRNA expression: down-regulation

From patent publication US7195879B2, “Method for identifying modulators of NAv ion channels” (priority 2002, dated 2007)
